PubChem BioAssay AID1794845 (National Center for Advancing Translational Sciences (NCATS), 2023)
The campaign covered roughly 6,900 compounds. Fewer than 10 were called active. The call rests on the fitted dose curve; in most records, active means well fitted curve in the direction sought with a large enough effect; inconclusive means small, poorly fitted or top-dose-only effect, or another doubt; inactive means no such curve, though single readings can be large or run the other way. This is one part of the list.

Sequences of proteins named here, by UniProt entry; tags and fusion partners are left off. A change or cut given only in a name is not applied to a line headed by its entry.
UniProt C7C422: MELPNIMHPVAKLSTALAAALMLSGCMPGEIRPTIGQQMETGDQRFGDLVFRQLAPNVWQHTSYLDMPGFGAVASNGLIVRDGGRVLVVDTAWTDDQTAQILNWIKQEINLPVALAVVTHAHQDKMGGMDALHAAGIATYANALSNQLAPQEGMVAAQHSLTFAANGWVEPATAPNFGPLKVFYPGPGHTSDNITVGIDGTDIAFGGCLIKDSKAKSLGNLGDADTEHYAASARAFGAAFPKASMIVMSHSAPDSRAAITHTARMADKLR

Target: Metallo-beta-lactamase type 2 (Klebsiella pneumoniae) (UniProt C7C422)
Assay: qHTS to identify inhibitors of the New Delhi Metallo-beta-lactamase (NDM): primary screen against the NCATS Gemini Collection; further: % of control where 0% means no effect
Conditions: NDM-1 enzyme, meropenem hydrolysis, absorbance 300 nm; at 38.4 µM (top of the series) unless noted
Procedure, shortened: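 Meropenem hydrolysis (50 uM final) by 2 nM NDM-1 read as 300 nm absorbance after 30 min, following >30 min compound–enzyme preincubation in HEPES pH 7.0 with 1 uM ZnSO4 and 0.01% Tween20.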

Activity % (negative = inhibition), inactive:
Cc1ccc(C(C(=O)O)N2CCC(CCN3CCCC3=O)CC2)cc1C (stereo unspecified) 0.203%
COc1cccc(CN2CCCC3(CCN(C(=O)c4cnc(C)cn4)C3)C2)c1 (stereo unspecified) -12.3%
Cc1nnc2n1CCC(NC(=O)CCCc1c[nH]c3ccccc13)CC2 (stereo unspecified) 2.08%
CCc1ncc(-c2c(-c3ccccc3)ncn2CCCOc2cccnc2)cn1 56.7%
CCCN(CCC)C(=O)c1coc(COc2ccc3sc(C)nc3c2)n1 0.676%
CCCn1cnc2c1CN(S(=O)(=O)c1ccc(F)cc1)[C@H](C(=O)OC)C2 2.26% [at 57.5 µM]
CCOCCN1C(=O)COC[C@@H]1[C@H](O)c1ccc(NC(=O)c2cccc(C#N)c2)cc1 5.93% [at 57.5 µM]
O=C(NC1CCCC1)N1CCCC(Cn2cnc3cccnc32)C1 (stereo unspecified) 26.6%
CN(CCOc1cccc(Cl)c1)C(=O)c1cccc(CCC(C)(C)O)c1 6.5%
COc1ccc(OC)c(CN2CCC3(CC2)Nc2ccccc2NC3=O)c1 0.719%
Cc1nn(C)c(C)c1NC(=O)CC[C@H]1NC(=O)c2ccccc2NC1=O 36.7%
CSCC(=O)N[C@H]1CCN2C(=O)c3ccc(Cl)cc3NC(=O)[C@@H]2C1 1.45% [at 57.5 µM]
CCOCCOC1CCN(C(=O)c2cccc3[nH]ccc23)CC1 5.83%
COCCN1CCC2(CCC1=O)CN(C(=O)NC(C)C)CCN2C (stereo unspecified) -3%
COc1cccc(CN2CCNC(=O)C2CC(=O)N2CCNC(=O)C2)c1OC (stereo unspecified) -0.189%
O=C(c1cn2ccccc2n1)N1C[C@@H](CO)[C@H](c2ccccn2)C1 5.31%
O=S(=O)(NC[C@H]1O[C@@H](CO)[C@@H](O)[C@H]1N1CCN(c2ccc(F)cc2)CC1)c1ccc(F)cc1 1.36%
CCCN1C[C@@H](CO)[C@H](c2nc(CCOC)no2)C1 -0.261%
COc1cccc(-c2cc(CC3(O)CCN(c4nnc(C)o4)CC3)on2)c1 -5.45%
COc1ccc(Nc2ccc3c(n2)CN(Cc2ccccc2C)C(=O)CO3)cc1 11.6% [at 57.5 µM]
CC(C)=CCN1Cc2ccccc2NC(=O)C12CCNC2 (stereo unspecified) 4.99% [at 57.5 µM]
O=C(NCCc1ccccc1)C1CCC(=O)N(CCCN2CCOCC2)C1 (stereo unspecified) 1.78%
Cc1cnn(CCC(=O)NC2CCN(c3ccc(=O)n(C)n3)CC2)c1 -0.418%
CCc1cn(C[C@H](NC(=O)C2CCCC2)C(=O)O)c(=O)[nH]c1=O -9.31% [at 57.5 µM]
COc1cccc(CN2CCC(Oc3ccc(-c4noc(C5CC5)n4)cc3)C2)c1 (stereo unspecified) 0.662%
CN1CCN(C(=O)N2CCC3(CCCN(C4CCOCC4)C3=O)C2)CC1 (stereo unspecified) -0.0909%
Cn1cnc([S+](=O)([O-])N2CCN(C(=O)N3CC4CC(C3)[C@H]3CCCC(=O)N3C4)CC2)c1 (stereo partly specified) 1.83%
CCO[C@H]1CN(Cc2cnc(SCc3ccccc3)nc2)C[C@@H]1O 4.65%
C[C@@H]1CN(Cc2cc(C(N)=O)oc2C(C)(C)C)CC[C@@]1(O)C1CCC1 1.66%
COc1ccc(CN2CCOC[C@H]2c2ncc(-c3cccnc3)[nH]2)cc1 3.6% [at 57.5 µM]
Cc1ccc([C@@H]2CN(C(=O)CN3CCOC3=O)C[C@H]2NC(=O)C2CC2)cc1 -1.88%
O=C(c1ccoc1)N1CCC2(CC1)CC(CO)N(C(=O)c1ccccc1)C2 (stereo unspecified) 6.66%
C=CCNC(=O)c1cnn2c1CN(C(=O)OCc1ccccc1)CC2 1.77%
Cc1ccc(C(=O)N[C@H]2CO[C@H]3[C@@H]2OC[C@@H]3n2cc(-c3ccccc3)nn2)cc1 1.92% [at 57.5 µM]
COC(=O)NC1CCCN(Cc2ccc(-c3cncnc3)cc2)C1 (stereo unspecified) 4.69% [at 57.5 µM]
Cn1nc(C2CCCC2)cc1NC(=O)C1CC1 -6.67% [at 57.5 µM]
CCc1nc(NC2CCCC2)ncc1C(=O)O 6.04%
COCc1nc(-c2cccc(NC(=O)CC[C@H]3NC(=O)c4ccccc4NC3=O)c2)n[nH]1 -1.17%
Cc1cnc(C(=O)N[C@@H]2CCC[C@@H]2C(=O)NCc2cc(F)ccc2F)cn1 2.67%
OC1(CN2CCN(CCc3ccccn3)CC2)CCCNC1 (stereo unspecified) 54.2%
CNC(=O)c1cc[nH]c1C1CCCN(Cc2ccc3c(c2)CCO3)C1 (stereo unspecified) 15.5%
Cn1nccc1C(=O)N1C[C@@H](F)C[C@H]1C(=O)N1CCCCC1 1.31%
Cn1cccc1C(=O)N[C@H]1C[C@@H]2C(=O)N[C@H]3CCN(C(=O)Cc4cccs4)[C@@H]3C(=O)N2C1 1.62%
CN(Cc1cn(C)c2ccccc12)C1CCc2nn(CC3CC3)c(=O)n2CC1 (stereo unspecified) -1.91%
COc1cccc(-c2ccc(CN3CCCC3C(=O)N3CCN(c4ncccn4)CC3)cc2)c1 (stereo unspecified) 2.74%
CNCCN1C(=O)CC[C@H]2CN(C(=O)COc3cccnc3)CC[C@H]21 -1.29%
NC(=O)CN1CC2(CCC1=O)CCN(C[C@@H](O)CO)CC2 -1.59%
c1ccc(Nc2cc3c(cn2)NCCN(Cc2ccccn2)C3)cc1 15.7% [at 57.5 µM]
CCN1C(=O)Cc2cc(C(=O)NCc3c(C)cc(C)cc3C)ccc21 4.54%
Cc1ccc(CN2CC[C@H](c3nc4cc(C)ccc4o3)C2)cc1 4.4% [at 57.5 µM]
CCN(CC)C(=O)c1cc2c(s1)CCC(C(=O)N1CCN(c3ccccn3)CC1)C2 (stereo unspecified) 16.9%
COc1ccccc1OCCN1C(=O)C2(CCOCC2)CC1c1nnnn1C(C)(C)C (stereo unspecified) 4.52%
Cc1cnc(CCN)n1Cc1ccccc1 -1.12%
CC(C)n1nc(OC(C)(C)C(=O)Nc2ccccn2)c2cc(CN3CCOCC3)ccc21 2.09% [at 57.5 µM]
CC(=O)N[C@@H]1CN(C(=O)CCc2c[nH]c3ccccc23)C[C@H]1CO 0.334%
Cn1ncc2c(NCCc3nnc(N)s3)nc(-c3ccncc3)nc21 0.0205%
CN1CCNC(=O)C1CC(=O)O (stereo unspecified) 12.9%
COc1ccc(CN2CCN(C3CCN(c4ccccc4)CC3)CC2CCO)cc1C (stereo unspecified) -1.42%
Cc1onc(-c2cnn(C)c2NCc2ccc(C#N)cc2)c1C(=O)N1CCCC1 0.853% [at 57.5 µM]
O=S(=O)(c1ccccc1F)N1CCC(CCc2nc(C3CCOCC3)no2)CC1 28.6%
CCCS(=O)(=O)N1CCCC(c2[nH]ccc2C(N)=O)C1 (stereo unspecified) 0.265%
COc1ccc(Cl)cc1C(=O)N1CCC2(CC1)CN(C)CCN2C -1.47%
O=C(c1nc(-c2cccnc2)c2ccccn12)N1CCOCC1 13.2% [at 57.5 µM]
COc1ccc(CN2CC(c3nc(Cc4cccnc4)no3)C2)c(OC)c1 17.3%
CCc1nc(-c2c3n(c(=O)n(CC(=O)Nc4cc(C)on4)c2=O)CCCC3)no1 3.96%
O=C(NC[C@H]1OC[C@@H](NC2CCC2)[C@@H]1O)N1CCOCC1 -10.1% [at 57.5 µM]
CCn1nc(CC(C)C)cc1C(=O)N(C)Cc1cccc(-n2cccn2)c1 -7.67%
COCC(=O)NC1CCC12CCN(C(=O)c1ccc3ccccc3n1)CC2 (stereo unspecified) 45.7%
CNc1cccnc1OC1CCN(S(=O)(=O)c2ccc3c(c2)CCC3)C1 (stereo unspecified) 11.7%
CC(C)c1nnc(C2CN(C(=O)Cc3ccccc3Cl)CC23CCOCC3)o1 (stereo unspecified) -5.97%
CC(C)CC(=O)N1CCCCCC1c1nc(-c2ccncc2)no1 (stereo unspecified) 8.06%
CCN(CC)Cc1cccc(NS(=O)(=O)NCc2ccccc2)c1 3.39%
COc1ccc(C(=O)N[C@@H]2CN(C(=O)Nc3cccc(C(F)(F)F)c3)CCC[C@H]2O)cc1 4.38%
Cc1noc(-c2ccccc2Cl)c1C(=O)NCCCc1ccccc1 5.18%
O=C1CCCCC(C(=O)N2CC=C(c3ccccc3)CC2)N1 (stereo unspecified) 3.49%
COC1CCN(CC2CCCCCN2C(=O)c2cc(F)ccc2F)CC1 (stereo unspecified) 22.4%
COC(=O)c1cccc(CNCC2=CC(C)(C)COc3ccc(OC)cc32)c1 5.31%
O=C(c1ccccc1)N1CCCC(C(=O)N2CCC(c3nc4ccncc4[nH]3)C2)C1 (stereo unspecified) 0.416%
Cc1ccc(NC(=O)N[C@H]2C[C@@](O)(C(=O)N[C@H]3CCCNC3=O)C[C@@H](O)[C@@H]2O)cc1 0.424% [at 57.5 µM]
CN1CCN([C@H]2CCN(Cc3ccc4occc4c3)C[C@H]2CCC(=O)O)CC1 -2.63%
COc1cccc(C(=O)N(CC(C)C)CC2CN(C(=O)Nc3ccccc3)CCO2)c1 (stereo unspecified) 2.82%
O=C(CCC1CCCC1)Nc1ccc(-c2nnc3n2CCCC3)cc1 2.38%
CN(C)[C@@H]1CN(C(=O)c2ccc(C#N)cc2)C[C@H]1CO -7.06%
Cc1n[nH]c(C)c1CCC(=O)Nc1cccn2nc(C3CCC3)nc12 3.99%
CC(C)c1noc([C@@H]2C[C@H](NS(=O)(=O)Cc3ccccc3)CN2C)n1 -5.69% [at 57.5 µM]
O=C(CN1C(=O)COc2ccc(C(=O)COc3ccccc3F)cc21)Nc1ccc(F)cc1 -1.38%

Quoted at random: 3 compounds from above.
Activity % (negative = inhibition), inactive:
CCc1nc(NC2CCCC2)ncc1C(=O)O 6.04%
CCc1ncc(-c2c(-c3ccccc3)ncn2CCCOc2cccnc2)cn1 56.7%
CC(C)c1nnc(C2CN(C(=O)Cc3ccccc3Cl)CC23CCOCC3)o1 (stereo unspecified) -5.97%
